Measured values from PMC9822988.
These are yes or no findings as the source states them, for the method shown. Some binding calls cover weakened binding; strength is not graded here.

By UniProt entry, the sequences of proteins in these tests, tags left out. Where a name states a change or a piece, a line headed by the entry shows the natural chain unless it says otherwise. Residues count along the entry.
UniProt P17927, residues 42-2039: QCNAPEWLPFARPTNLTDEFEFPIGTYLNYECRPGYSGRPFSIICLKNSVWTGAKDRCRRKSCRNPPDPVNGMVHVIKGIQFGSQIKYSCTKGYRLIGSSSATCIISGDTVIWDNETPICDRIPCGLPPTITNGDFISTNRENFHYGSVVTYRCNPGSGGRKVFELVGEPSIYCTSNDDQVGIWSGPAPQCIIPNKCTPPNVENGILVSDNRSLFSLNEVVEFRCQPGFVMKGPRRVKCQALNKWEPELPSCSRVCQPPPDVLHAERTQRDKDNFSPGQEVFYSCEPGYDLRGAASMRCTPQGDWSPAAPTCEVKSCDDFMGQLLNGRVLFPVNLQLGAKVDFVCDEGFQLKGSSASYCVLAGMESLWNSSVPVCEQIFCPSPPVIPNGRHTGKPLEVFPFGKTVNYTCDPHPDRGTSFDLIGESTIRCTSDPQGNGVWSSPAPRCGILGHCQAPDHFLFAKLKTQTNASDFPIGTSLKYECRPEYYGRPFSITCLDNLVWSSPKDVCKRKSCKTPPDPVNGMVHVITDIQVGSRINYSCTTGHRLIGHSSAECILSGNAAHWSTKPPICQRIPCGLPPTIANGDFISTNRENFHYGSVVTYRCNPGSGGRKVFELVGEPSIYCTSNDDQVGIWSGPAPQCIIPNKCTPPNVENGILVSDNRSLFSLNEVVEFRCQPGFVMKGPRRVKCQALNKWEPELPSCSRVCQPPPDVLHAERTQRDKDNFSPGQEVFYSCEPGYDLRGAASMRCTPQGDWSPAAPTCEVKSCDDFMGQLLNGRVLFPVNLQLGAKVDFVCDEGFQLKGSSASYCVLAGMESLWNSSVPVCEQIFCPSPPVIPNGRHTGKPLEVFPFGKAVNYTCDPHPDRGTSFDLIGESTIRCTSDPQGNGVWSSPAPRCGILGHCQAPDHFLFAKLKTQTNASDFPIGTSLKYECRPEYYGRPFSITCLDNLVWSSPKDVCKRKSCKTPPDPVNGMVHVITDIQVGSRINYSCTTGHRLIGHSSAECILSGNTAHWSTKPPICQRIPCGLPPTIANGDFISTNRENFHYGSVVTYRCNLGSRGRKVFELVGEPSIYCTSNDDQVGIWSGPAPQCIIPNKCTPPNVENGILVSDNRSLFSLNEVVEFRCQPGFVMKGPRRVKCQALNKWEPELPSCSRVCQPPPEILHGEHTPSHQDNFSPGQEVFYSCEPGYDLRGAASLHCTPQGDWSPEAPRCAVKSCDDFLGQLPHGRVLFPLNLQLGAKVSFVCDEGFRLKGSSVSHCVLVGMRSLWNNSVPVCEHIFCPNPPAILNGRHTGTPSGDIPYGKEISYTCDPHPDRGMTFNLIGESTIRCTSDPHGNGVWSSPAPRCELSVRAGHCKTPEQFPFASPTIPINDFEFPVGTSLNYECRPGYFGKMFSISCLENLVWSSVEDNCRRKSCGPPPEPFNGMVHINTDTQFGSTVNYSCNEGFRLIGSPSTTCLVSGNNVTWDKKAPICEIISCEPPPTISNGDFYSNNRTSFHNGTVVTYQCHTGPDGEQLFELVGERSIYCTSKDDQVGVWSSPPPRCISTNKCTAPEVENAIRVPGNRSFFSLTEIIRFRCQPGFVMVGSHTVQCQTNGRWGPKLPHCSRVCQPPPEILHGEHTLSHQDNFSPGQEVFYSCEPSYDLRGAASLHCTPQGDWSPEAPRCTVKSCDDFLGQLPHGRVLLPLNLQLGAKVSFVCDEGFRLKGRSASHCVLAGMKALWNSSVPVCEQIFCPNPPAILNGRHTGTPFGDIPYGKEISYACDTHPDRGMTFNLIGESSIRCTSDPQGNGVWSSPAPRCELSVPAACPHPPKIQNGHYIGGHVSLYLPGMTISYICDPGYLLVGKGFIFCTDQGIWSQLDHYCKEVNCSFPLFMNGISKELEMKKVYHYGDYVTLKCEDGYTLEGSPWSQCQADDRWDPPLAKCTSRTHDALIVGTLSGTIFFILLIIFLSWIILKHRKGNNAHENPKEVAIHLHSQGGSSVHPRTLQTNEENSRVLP
UniProt P01024: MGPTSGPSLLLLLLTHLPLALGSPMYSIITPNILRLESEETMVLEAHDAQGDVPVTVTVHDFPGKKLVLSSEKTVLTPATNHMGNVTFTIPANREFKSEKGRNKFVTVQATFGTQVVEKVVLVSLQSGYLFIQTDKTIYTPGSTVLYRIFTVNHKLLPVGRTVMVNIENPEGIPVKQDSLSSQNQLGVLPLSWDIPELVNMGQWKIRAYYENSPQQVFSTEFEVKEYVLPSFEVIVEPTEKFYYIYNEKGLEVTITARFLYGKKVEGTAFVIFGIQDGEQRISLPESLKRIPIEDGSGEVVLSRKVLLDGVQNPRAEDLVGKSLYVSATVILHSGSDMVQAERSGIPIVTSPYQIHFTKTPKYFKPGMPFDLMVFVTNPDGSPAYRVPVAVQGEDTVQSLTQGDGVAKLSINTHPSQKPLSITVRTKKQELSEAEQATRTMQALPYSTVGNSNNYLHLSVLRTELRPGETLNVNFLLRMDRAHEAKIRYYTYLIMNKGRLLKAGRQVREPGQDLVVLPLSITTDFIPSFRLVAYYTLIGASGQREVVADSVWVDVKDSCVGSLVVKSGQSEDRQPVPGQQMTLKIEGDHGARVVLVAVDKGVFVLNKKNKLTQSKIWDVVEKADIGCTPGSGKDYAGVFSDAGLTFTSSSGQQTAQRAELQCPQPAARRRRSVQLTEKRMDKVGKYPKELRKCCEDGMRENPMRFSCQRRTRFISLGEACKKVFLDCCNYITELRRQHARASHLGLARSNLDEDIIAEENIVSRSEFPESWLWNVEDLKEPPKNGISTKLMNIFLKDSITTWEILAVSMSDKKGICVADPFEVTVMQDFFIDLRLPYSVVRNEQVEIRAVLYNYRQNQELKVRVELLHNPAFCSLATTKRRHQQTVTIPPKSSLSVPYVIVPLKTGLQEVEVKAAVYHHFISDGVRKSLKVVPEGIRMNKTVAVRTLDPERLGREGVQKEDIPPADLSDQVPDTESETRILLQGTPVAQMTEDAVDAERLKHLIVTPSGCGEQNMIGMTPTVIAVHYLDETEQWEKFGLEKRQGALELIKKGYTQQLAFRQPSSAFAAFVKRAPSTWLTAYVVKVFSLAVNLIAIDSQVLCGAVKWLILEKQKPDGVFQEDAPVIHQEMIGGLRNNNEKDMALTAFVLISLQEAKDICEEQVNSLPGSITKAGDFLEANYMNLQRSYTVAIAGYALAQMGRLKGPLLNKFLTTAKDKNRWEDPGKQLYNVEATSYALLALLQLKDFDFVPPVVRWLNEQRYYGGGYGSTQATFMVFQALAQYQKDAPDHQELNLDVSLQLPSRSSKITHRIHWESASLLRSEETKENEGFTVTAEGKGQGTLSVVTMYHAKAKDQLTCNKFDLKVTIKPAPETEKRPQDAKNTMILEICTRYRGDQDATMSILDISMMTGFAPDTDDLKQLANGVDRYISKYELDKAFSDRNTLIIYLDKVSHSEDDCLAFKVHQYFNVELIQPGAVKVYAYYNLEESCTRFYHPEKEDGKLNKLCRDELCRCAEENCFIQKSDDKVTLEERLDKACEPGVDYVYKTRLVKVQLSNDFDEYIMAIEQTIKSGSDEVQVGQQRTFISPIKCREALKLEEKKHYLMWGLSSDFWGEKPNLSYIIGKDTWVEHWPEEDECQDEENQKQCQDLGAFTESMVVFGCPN

Target: Complement receptor 1 (human (endogenous in neutrophils)) (UniProt P17927)
Assay: flow cytometry on cells; FITC-labelled 2.8-µm streptavidin beads loaded with C3b-PEG11-biotin, mixed 10:1 with human neutrophils, 15 min at 37 °C on a shaking platform, then fixed; neutrophils with or without pre-incubation with 25 µg/mL anti-CR1 (3D9) or anti-CR3 (ICRF44) blocking antibodies; only the binder purified

binding: binds
Substance: C3b-PEG11-biotin (from UniProt P01024 23-667; P01024 749-1663)
